Assay results as given in the supplement of paper PMC8728848.
The list shows a part of the results.

Legend:
Experiment in all cases: glycan array binding signal (z-score within array); higher = stronger binding
Settings in all cases: glycan notation: IUPAC condensed, linker removed
[1] = molecular target: Gal(b1-3)GlcNAc(b1-6)[Gal(b1-3)]GalNAc
Outline: (§1)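 The binding signal is a Z-score computed within each array. Data were drawn from 3228 arrays in the Consortium for Functional Glycomics database, restricted to those with a known protein sequence. Scores were averaged over arrays of the same protein sequence at different concentrations or buffers, and over linkers, and negative values can be taken as non-binding.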

Gal(b1-3)GlcNAc6S = molecular target: Gal(b1-3)GlcNAc6S
Outline: as §1

[2] = molecular target: Gal(b1-3)[Fuc(a1-4)]GlcNAc
Outline: as §1

[3] = molecular target: Gal(b1-3)[Fuc(a1-4)]GlcNAc(b1-2)Man
Outline: as §1

[4] = molecular target: Gal(b1-3)[Fuc(a1-4)]GlcNAc(b1-2)Man(a1-3)[Gal(b1-3)[Fuc(a1-4)]GlcNAc(b1-2)Man(a1-6)]Man(b1-4)GlcNAc(b1-4)[Fuc(a1-6)]GlcNAc
Outline: as §1

[5] = molecular target: Gal(b1-3)[Fuc(a1-4)]GlcNAc(b1-3)Gal(b1-3)[Fuc(a1-4)]GlcNAc
Outline: as §1

[6] = molecular target: Gal(b1-3)[Fuc(a1-4)]GlcNAc(b1-3)Gal(b1-4)[Fuc(a1-3)]GlcNAc
Outline: as §1

[7] = molecular target: Gal(b1-3)[Fuc(a1-4)]GlcNAc(b1-6)GalNAc
Outline: as §1

[8] = molecular target: Gal(b1-3)[GlcNAc(b1-6)]GalNAc
Outline: as §1

[9] = molecular target: Gal(b1-3)[Neu5Ac(a2-6)]GalNAc
Outline: as §1

[10] = molecular target: Gal(b1-3)[Neu5Ac(a2-6)]GlcNAc(b1-4)Gal(b1-4)Glc
Outline: as §1

[11] = molecular target: Gal(b1-3)[Neu5Ac(b2-6)]GalNAc
Outline: as §1

Gal(b1-4)Gal = molecular target: Gal(b1-4)Gal
Outline: as §1

[12] = molecular target: Gal(b1-4)GalNAc(a1-3)[Fuc(a1-2)]Gal(b1-4)GlcNAc
Outline: as §1

[13] = molecular target: Gal(b1-4)GalNAc(b1-3)[Fuc(a1-2)]Gal(b1-4)GlcNAc
Outline: as §1

Gal(b1-4)Glc = molecular target: Gal(b1-4)Glc
Outline: as §1

Gal(b1-4)Glc6S = molecular target: Gal(b1-4)Glc6S
Outline: as §1

Gal(b1-4)GlcNAc = molecular target: Gal(b1-4)GlcNAc
Outline: as §1

[14] = molecular target: Gal(b1-4)GlcNAc(a1-6)Gal(b1-4)GlcNAc
Outline: as §1

Gal(b1-4)GlcNAc(b1-2)Man = molecular target: Gal(b1-4)GlcNAc(b1-2)Man
Outline: as §1

[15] = molecular target: Gal(b1-4)GlcNAc(b1-2)Man(a1-3)Man(b1-4)GlcNAc(b1-4)GlcNAc
Outline: as §1

[16] = molecular target: Gal(b1-4)GlcNAc(b1-2)Man(a1-3)[Gal(b1-4)GlcNAc(b1-2)Man(a1-6)]Man(b1-4)GlcNAc(b1-4)GlcNAc
Outline: as §1

[17] = molecular target: Gal(b1-4)GlcNAc(b1-2)Man(a1-3)[Gal(b1-4)GlcNAc(b1-2)Man(a1-6)]Man(b1-4)GlcNAc(b1-4)[Fuc(a1-6)]GlcNAc
Outline: as §1

[18] = molecular target: Gal(b1-4)GlcNAc(b1-2)Man(a1-3)[Gal(b1-4)GlcNAc(b1-2)Man(a1-6)][Gal(b1-4)GlcNAc(b1-4)]Man(b1-4)GlcNAc(b1-4)[Fuc(a1-6)]GlcNAc
Outline: as §1

[19] = molecular target: Gal(b1-4)GlcNAc(b1-2)Man(a1-3)[Gal(b1-4)GlcNAc(b1-2)Man(a1-6)][GlcNAc(b1-4)]Man(b1-4)GlcNAc(b1-4)[Fuc(a1-6)]GlcNAc
Outline: as §1

[20] = molecular target: Gal(b1-4)GlcNAc(b1-2)Man(a1-3)[GlcNAc(b1-2)Man(a1-6)]Man(b1-4)GlcNAc(b1-4)GlcNAc
Outline: as §1

[21] = molecular target: Gal(b1-4)GlcNAc(b1-2)Man(a1-3)[GlcNAc(b1-4)][Gal(b1-4)GlcNAc(b1-2)Man(a1-6)]Man(b1-4)GlcNAc(b1-4)GlcNAc
Outline: as §1

[22] = molecular target: Gal(b1-4)GlcNAc(b1-2)Man(a1-3)[Man(a1-6)]Man(b1-4)GlcNAc(b1-4)GlcNAc
Outline: as §1

[23] = molecular target: Gal(b1-4)GlcNAc(b1-2)Man(a1-6)Man(b1-4)GlcNAc(b1-4)GlcNAc
Outline: as §1

[24] = molecular target: Gal(b1-4)GlcNAc(b1-2)Man(a1-6)[GlcNAc(b1-2)Man(a1-3)]Man(b1-4)GlcNAc(b1-4)GlcNAc
Outline: as §1

[25] = molecular target: Gal(b1-4)GlcNAc(b1-2)Man(a1-6)[Man(a1-3)]Man(b1-4)GlcNAc(b1-4)GlcNAc
Outline: as §1

[26] = molecular target: Gal(b1-4)GlcNAc(b1-2)[Gal(b1-4)GlcNAc(b1-4)]Man(a1-3)[Gal(b1-4)GlcNAc(b1-2)Man(a1-6)]Man(b1-4)GlcNAc(b1-4)GlcNAc
Outline: as §1

[27] = molecular target: Gal(b1-4)GlcNAc(b1-2)[Gal(b1-4)GlcNAc(b1-4)]Man(a1-3)[Gal(b1-4)GlcNAc(b1-2)[Gal(b1-4)GlcNAc(b1-6)]Man(a1-6)]Man(b1-4)GlcNAc(b1-4)GlcNAc
Outline: as §1

[28] = molecular target: Gal(b1-4)GlcNAc(b1-2)[Gal(b1-4)GlcNAc(b1-4)]Man(a1-3)[GlcNAc(b1-4)][Gal(b1-4)GlcNAc(b1-2)Man(a1-6)]Man(b1-4)GlcNAc(b1-4)GlcNAc
Outline: as §1

[29] = molecular target: Gal(b1-4)GlcNAc(b1-2)[Gal(b1-4)GlcNAc(b1-4)]Man(a1-3)[GlcNAc(b1-4)][Gal(b1-4)GlcNAc(b1-2)[Gal(b1-4)GlcNAc(b1-6)]Man(a1-6)]Man(b1-4)GlcNAc(b1-4)GlcNAc
Outline: as §1

[30] = molecular target: Gal(b1-4)GlcNAc(b1-2)[Gal(b1-4)GlcNAc(b1-6)]Man(a1-6)[Gal(b1-4)GlcNAc(b1-2)Man(a1-3)]Man(b1-4)GlcNAc(b1-4)GlcNAc
Outline: as §1

[31] = molecular target: Gal(b1-4)GlcNAc(b1-2)[Gal(b1-4)GlcNAc(b1-6)]Man(a1-6)[Gal(b1-4)GlcNAc(b1-2)Man(a1-3)]Man(b1-4)GlcNAc(b1-4)[Fuc(a1-6)]GlcNAc
Outline: as §1

B1: AntigenI/IIC123 (Streptococcus mutans), C9E3B4 (protein)
chain: MASMTGGQQMGRIHFHYFKLAVQPQVNKEIRNNNDINIDRTLVAKQSVVKFQLKTADLPAGRDETTSFVLVDPLPSGYQFNPEATKAASPGFDVTYDNATNTVTFKATAATLATFNADLTKSVATIYPTVVGQVLNDGATYKNNFTLTVNDAYGIKSNVVRVTTPGKPNDPDNPNNNYIKPTKVNKNENGVVIDGKTVLAGSTNYYELTWDLDQYKNDRSSADTIQKGFYYVDDYPEEALELRQDLVKITDANGNEVTGVSVDNYTNLEAAPQEIRDVLSKAGIRPKGAFQIFRADNPREFYDTYVKTGIDLKIVSPMVVKKQMGQTGGSYENQAYQIDFGNGYASNIIINNVPKINPKKDVTLTLDPADTNNVDGQTIPLNTVFNYRLIGGIIPADHSEELFEYNFYDDYDQTGDHYTGQYKVFAKVDITFKDGSIIKSGAELTQYTTAEVDTAKGAITIKFKEAFLRSVSIDSAFQAESYIQMKRIAVGTFENTYINTVNGVTYSSLEHHHHHH
glycan array binding signal (z-score) [1]: 0.941 | glycan array binding signal (z-score) (Gal(b1-3)GlcNAc6S): -0.331 | glycan array binding signal (z-score) [2]: -0.616 | glycan array binding signal (z-score) [3]: 0.022 | glycan array binding signal (z-score) [4]: -0.554 | glycan array binding signal (z-score) [5]: 0.036 | glycan array binding signal (z-score) [6]: -0.913 | glycan array binding signal (z-score) [7]: 1.06 | glycan array binding signal (z-score) [8]: 0.715 | glycan array binding signal (z-score) [9]: -0.159 | glycan array binding signal (z-score) [10]: -0.539 | glycan array binding signal (z-score) [11]: -0.106 | glycan array binding signal (z-score) (Gal(b1-4)Gal): -0.081 | glycan array binding signal (z-score) [12]: -0.864 | glycan array binding signal (z-score) [13]: -0.567 | glycan array binding signal (z-score) (Gal(b1-4)Glc): -0.194 | glycan array binding signal (z-score) (Gal(b1-4)Glc6S): 0.662 | glycan array binding signal (z-score) (Gal(b1-4)GlcNAc): -0.786 | glycan array binding signal (z-score) [14]: -0.039 | glycan array binding signal (z-score) (Gal(b1-4)GlcNAc(b1-2)Man): 0.057 | glycan array binding signal (z-score) [15]: -0.281 | glycan array binding signal (z-score) [16]: -0.463 | glycan array binding signal (z-score) [17]: 0.3 | glycan array binding signal (z-score) [18]: 2.65 | glycan array binding signal (z-score) [19]: -1.3 | glycan array binding signal (z-score) [20]: -0.939 | glycan array binding signal (z-score) [21]: -0.86 | glycan array binding signal (z-score) [22]: -1.01 | glycan array binding signal (z-score) [23]: -0.141 | glycan array binding signal (z-score) [24]: -1.29 | glycan array binding signal (z-score) [25]: -0.851 | glycan array binding signal (z-score) [26]: 0.403 | glycan array binding signal (z-score) [27]: -0.85 | glycan array binding signal (z-score) [28]: -0.469 | glycan array binding signal (z-score) [29]: 0.437 | glycan array binding signal (z-score) [30]: 1 | glycan array binding signal (z-score) [31]: 2.64
